The test concerns L1210 leukemia ip in BDF1 mice, survival T/C. Description: NCI In Vivo Anticancer Drug Screen. Data for tumor model L1210 Leukemia (intraperitoneal) in B6D2F1 (BDF1) mice. The settings on record: T/C endpoint: mean survival time, higher T/C = longer survival.
The mark [1] stands for this setting: dose: 200.0 mg/kg/injection, schedule: Q01DX009 (ip), vehicle: saline.
Setting [2] is: dose: 400.0 mg/kg/injection, schedule: Q01DX009 (ip), vehicle: saline.
Setting [3] is: dose: 100.0 mg/kg/injection, schedule: Q04DX003 (ip), vehicle: Klucel (hydroxypropylcellulose) (HPC).
The mark [4] stands for this setting: dose: 200.0 mg/kg/injection, schedule: Q04DX003 (ip), vehicle: Klucel (hydroxypropylcellulose) (HPC).
The mark [5] stands for this setting: dose: 400.0 mg/kg/injection, schedule: Q04DX003 (ip), vehicle: Klucel (hydroxypropylcellulose) (HPC).
[6] abbreviates: dose: 400.0 mg/kg/injection, schedule: Q01DX001 (ip), vehicle: saline.
The mark [7] stands for this setting: dose: 400.0 mg/kg/injection, schedule: Q01DX009 (ip), vehicle: saline with Tween-80.
The mark [8] stands for this setting: dose: 200.0 mg/kg/injection, schedule: Q01DX009 (ip), vehicle: Klucel (hydroxypropylcellulose) (HPC).
The mark [9] stands for this setting: dose: 400.0 mg/kg/injection, schedule: Q01DX009 (ip), vehicle: Klucel (hydroxypropylcellulose) (HPC).
[10] abbreviates: dose: 200.0 mg/kg/injection, schedule: Q01DX001 (ip), vehicle: saline.
The mark [11] stands for this setting: dose: 400.0 mg/kg/injection, schedule: Q04DX003 (ip), vehicle: saline.
Where [12] appears, read: dose: 200.0 mg/kg/injection, schedule: Q04DX003 (ip), vehicle: saline.

Here are results for 25 compounds from PubChem BioAssay AID248 (DTP/NCI, 2004).

The list shows only some results of the screen, not a fair sample: it is rich in T/C values a quarter to a half above the control, in often repeated tests (any T/C) and in doses without a T/C. Further doses and runs are listed elsewhere. T/C is the treated group as % of the vehicle group. Some entries give survivors of the animals treated and no T/C: the source holds a T/C of zero for them, seemingly a mark for toxic or unscored doses. Some doses without a T/C left all or most animals alive at the check, yet need not have been tolerated: survival well below the control is almost never listed, so the zero probably covers shortened survival too. Survivors were counted at the toxicity check, usually on the fifth day, unless a day is given; later deaths do not show. Schedule codes are those of the source, read here as Q, the interval in days (D) or hours (H), X, the number of doses. Some molecules as drawn cover several salts, stereoisomers or complexes of the source; a dose is that of the sample tested. Some doses were run more than once; the results are listed from low to high. Some schedule codes hold Z or #, which are not explained here. Where survival is the endpoint, the PubChem record calls one and a half times the control and up active, and a quarter to a half above the control has no call in these data; cut-offs in other NCI protocols can differ.

Take `Br/C=C\c1ccccc1`: the survivor count runs as follows: under setting [1], 6 of 6; (dose: 400.0 mg/kg/injection, schedule: Q01DX009 (ip), vehicle: acetone) 0 of 6; under setting [2], 0 of 6.

For `C=CCn1c2ccccc2c2cc3cnccc3c(C)c21`, the survivor count by setting is: under setting [3], 3 of 6; under setting [4], 4 of 6; under setting [5], 2 of 6.

Consider `CSC(=N)N`, for which the survivor count by setting is: under setting [6], 2 of 6; (dose: 400.0 mg/kg/injection, schedule: Q04DX002 (ip), vehicle: saline) 2 of 3.

Turning to `FC(F)(F)c1nc[nH]c1C(F)(F)F`, for the setting “dose: 50.0 mg/kg/injection, schedule: Q01DX009 (ip), vehicle: water”, the survivor count is 0 of 6.

Regarding `CNC(=O)Oc1cccc(C)c1`, the survivor count by setting is: (dose: 100.0 mg/kg/injection, schedule: Q01DX009 (ip), vehicle: saline with Tween-80) 3 of 6; (dose: 200.0 mg/kg/injection, schedule: Q01DX009 (ip), vehicle: saline with Tween-80) 2 of 6; under setting [7], 0 of 6.

Take `COc1ccc(CCNC(=O)Cc2ccc(OC)c(OC)c2)cc1OC`: the survivor count (dose: 100.0 mg/kg/injection, schedule: Q04DX003 (ip), vehicle: saline with Tween-80) is recorded as 6 of 6 and the survivor count (dose: 400.0 mg/kg/injection, schedule: Q04DX003 (ip), vehicle: saline with Tween-80) was 6 of 6.

Turning to `CO[C@H]1/C=C/O[C@@]2(C)Oc3c(C)c(O)c4c(O)c(c(/C=N/N5CCN(C)CC5)c(O)c4c3C2=O)NC(=O)/C(C)=C\C=C\[C@H](C)[C@H](O)[C@@H](C)[C@@H](O)[C@@H](C)[C@H](OC(C)=O)[C@@H]1C`, the survivor count under setting [8] was 2 of 6; the survivor count under setting [9] was 0 of 6; the survivor count under setting [2] is given as 3 of 6; the survivor count (dose: 600.0 mg/kg/injection, schedule: Q01DX009 (ip), vehicle: saline) is given as 0 of 6; the survivor count (dose: 800.0 mg/kg/injection, schedule: Q01DX001 (ip), vehicle: acetone) was 2 of 6 and 3 of 6; the survivor count (dose: 800.0 mg/kg/injection, schedule: Q01DX009 (ip), vehicle: saline) is listed as 0 of 6. Besides, the survivor count is 0 of 6 (dose: 1000.0 mg/kg/injection, schedule: Q01DX009 (ip), vehicle: saline); 0 of 6 (dose: 1200.0 mg/kg/injection, schedule: Q01DX001 (ip), vehicle: acetone); 0 of 6 and 3 of 6 (dose: 1600.0 mg/kg/injection, schedule: Q01DX001 (ip), vehicle: acetone); 0 of 6 and 3 of 6 (dose: 2000.0 mg/kg/injection, schedule: Q01DX001 (ip), vehicle: acetone).

For the compound `O=c1[nH]c(Cl)nc2c(Cl)c(C(Cl)(Cl)Cl)nn12`, the survivor count under setting [7] was 4 of 6.

For `O=C(OCc1ccccc1)C1CCCN1Cc1ccc2c(c1)OCO2` (configuration not stated), the survivor count under setting [10] is 4 of 4.

For `CCCCCc1cccc(C)n1`, the survivor count is 1 of 4 under setting [10] and 0 of 4 under setting [6].

Regarding `NNC(=O)CNc1ccccc1Cl`, under “dose: 400.0 mg/kg/injection, schedule: Q04DX002 (ip), vehicle: Klucel (hydroxypropylcellulose) (HPC)”, the survivor count is listed as 0 of 3.

Take `CCCCCCCCC[n+]1cccc(C#N)c1`: the survivor count (dose: 300.0 mg/kg/injection, schedule: Q01DX001 (ip), vehicle: saline) is reported as 1 of 6.

Consider `O=C1C(NCc2c(O)ccc3ccccc23)CON1C(c1ccccc1)(c1ccccc1)c1ccccc1` (configuration not stated), for which the survivor count (dose: 150.0 mg/kg/injection, schedule: Q04DX003 (ip), vehicle: saline) is listed as 6 of 6.

As to `CC(C)(C(=O)O)C(C)(C)C(=O)O`, the survivor count is, setting by setting: (dose: 25.0 mg/kg/injection, schedule: Q01DX001 (ip), vehicle: saline) 0 of 3; (dose: 50.0 mg/kg/injection, schedule: Q01DX001 (ip), vehicle: saline) 0 of 3; (dose: 100.0 mg/kg/injection, schedule: Q01DX001 (ip), vehicle: saline) 0 of 3.

For the compound `Cc1cc(=O)c2cccc(-c3ccccc3)c2[nH]1`, under setting [11], the survivor count was 3 of 6.

Consider `Cn1cnc(=S)c2ccccc21`, for which the survivor count was 3 of 3 under setting [3], 1 of 3 under setting [4] and 1 of 3 under setting [5].

Turning to `O=C(Nc1cccc(C2=NCCN2)c1)Nc1cccc(C2=NCCN2)c1`, the survivor count (dose: 50.0 mg/kg/injection, schedule: Q01DX Z (ip), vehicle: water) is recorded as 0 of 6.

Regarding `CCSc1ccc2c(c1)N(CCCN1CCN(C)CC1)c1ccccc1S2`, where the note is “dose: 50.0 mg/kg/injection, schedule: Q04DX003 (ip), vehicle: saline”, the T/C is 146 % of control. The survivor count was 2 of 6 (dose: 100.0 mg/kg/injection, schedule: Q01DX009 (ip), vehicle: saline); 5 of 6 (dose: 100.0 mg/kg/injection, schedule: Q04DX003 (ip), vehicle: saline); 0 of 6 under setting [1]; 0 of 6 and 2 of 7 under setting [12]; 0 of 6 under setting [2]; 0 of 6 and 2 of 7 under setting [11].

As for `COc1nc(Cl)nc2c1c(C#N)cn2C1OC(CO)C(O)C1O` (configuration not stated), the survivor count (dose: 200.0 mg/kg/injection, schedule: Q01DX005 (ip), vehicle: saline) is 6 of 6.

Turning to `CCOC(=O)c1ccc(NC(=O)Nc2cc(Cl)ccc2C)cc1`, the survivor count under setting [9] is 2 of 6.

In the case of `CCN(CC)CCOC(=O)N(c1ccccc1)c1ccccc1`, the survivor count reads like this: under setting [1], 0 of 6; under setting [12], 1 of 4; under setting [2], 0 of 6; under setting [11], 0 of 4.

`CC(=O)N(N=O)c1c(C)cccc1C`: the survivor count is 1 of 4 under setting [10] and 0 of 4 under setting [6].

As for `C[C@]12CC[C@@H]3c4ccc(OCC(=O)O)cc4CC[C@H]3[C@@H]1CCC2=O`, the survivor count (dose: 300.0 mg/kg/injection, schedule: Q01DX009 (ip), vehicle: Klucel (hydroxypropylcellulose) (HPC)) is listed as 0 of 6.

`COc1cccc(/C=C/c2cnc3ccccc3n2)c1OC`: the survivor count under setting [8] is given as 6 of 6.

As to `CCOC(=O)C1CCNC(=O)C1=O` (configuration not stated), under setting [6], the survivor count is 1 of 4.
